A: 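Assay of Toxoplasma gondii numbers, read through their beta-galactosidase reporter with a colour substrate. Concentration: 10 µM. Higher reads as fewer parasites (inferred from which compounds were picked for retests). Of about 67,000 compounds tested this way, about 260 (0.38%) reached 50% or more in at least one test.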
B: 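Enzyme assay of histidyl-tRNA synthetase; the read-out is not stated. Target: Histidine-tRNA ligase, Trypanosoma cruzi CL Brener (UniProt Q4DA54). Compounds at 30 µM. The record gives no direction; compounds that gave an IC50 in retests scored well above the rest, so higher reads as stronger inhibition. About 69,000 compounds were tested under these conditions; 0.045% (about 31) showed 50% or more at least once.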
C: 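Histidine-tRNA ligase, Leishmania infantum (UniProt A4I591). Enzyme assay of histidyl-tRNA synthetase; the read-out is not stated. Tested at 30 µM. Higher reads as stronger inhibition (inferred: compounds with an IC50 in retests scored well above the rest). The assay is labelled LdHisRS but filed under L. infantum. Size under these conditions: about 69,000 compounds, about 410 of them at 50% or above in at least one test.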
D: 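Whole-parasite assay of Trypanosoma brucei over 72 hours; the read-out is not stated. Concentration: 30 µM. Higher reads as stronger inhibition (inferred: compounds with an IC50 in retests scored well above the rest). Values scatter widely below zero; nearly all retest evidence comes from the higher of the two concentrations used. Of about 64,000 compounds tested this way, about 940 (1.5%) reached 50% or more in at least one test.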

By UniProt entry, the sequences of proteins in these tests, tags left out. Residues count along the entry.
UniProt Q4DA54, 1-478: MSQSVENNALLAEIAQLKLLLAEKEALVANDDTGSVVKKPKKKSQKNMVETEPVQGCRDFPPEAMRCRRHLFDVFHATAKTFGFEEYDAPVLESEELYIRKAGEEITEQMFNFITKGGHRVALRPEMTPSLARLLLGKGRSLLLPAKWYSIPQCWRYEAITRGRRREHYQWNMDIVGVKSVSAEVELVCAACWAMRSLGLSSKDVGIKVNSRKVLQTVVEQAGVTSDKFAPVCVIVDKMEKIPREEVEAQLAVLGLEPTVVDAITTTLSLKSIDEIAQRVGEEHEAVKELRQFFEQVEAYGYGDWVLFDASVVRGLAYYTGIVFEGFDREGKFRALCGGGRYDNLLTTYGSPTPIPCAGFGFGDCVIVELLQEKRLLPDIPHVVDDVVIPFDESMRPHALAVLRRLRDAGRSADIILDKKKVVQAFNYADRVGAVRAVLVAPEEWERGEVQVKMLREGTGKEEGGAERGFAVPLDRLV
UniProt A4I591, 1-473: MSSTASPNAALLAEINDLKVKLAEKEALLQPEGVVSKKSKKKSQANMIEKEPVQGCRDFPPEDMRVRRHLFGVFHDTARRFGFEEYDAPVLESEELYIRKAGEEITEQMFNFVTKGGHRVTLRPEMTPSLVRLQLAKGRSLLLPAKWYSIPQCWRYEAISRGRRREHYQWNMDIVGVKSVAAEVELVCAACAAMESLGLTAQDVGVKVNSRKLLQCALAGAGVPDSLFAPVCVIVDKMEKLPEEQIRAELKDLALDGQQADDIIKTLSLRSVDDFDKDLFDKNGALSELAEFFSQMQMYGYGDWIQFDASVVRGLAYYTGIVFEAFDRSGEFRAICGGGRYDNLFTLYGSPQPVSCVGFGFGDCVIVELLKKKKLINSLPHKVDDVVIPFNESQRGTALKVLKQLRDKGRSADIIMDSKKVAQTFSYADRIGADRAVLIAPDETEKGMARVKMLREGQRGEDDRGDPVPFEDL

Results are given as percent effect.
The record does not define 0% and 100%; most values in the screen are far below 50% and negative numbers occur (in some assays of this library far below -100).
The compounds are a random part of those screened.

[H][C@]12CCN(C(=O)c3ccccc3F)C[C@@]1([H])OCCN(c1ncccn1)C2 gave A: -12.78%; D: -310.9%. [H][C@@]12CS(=O)(=O)C[C@]1([H])N(S(=O)(=O)c1ccccc1OC)CCN2CCC read A: -22.71%; D: -52.83%. With Cc1csc(NC(=O)c2cnc(C3CCNCC3)cn2)n1.Cl the screen gave A: 8.639%; D: -16.07%. CNC(=O)[C@H]1CCS(=O)(=O)[C@@H]2CN(Cc3ccc(OC)cc3)C[C@H]12 gave B: 0.5348%; C: 1.923%. Result for Cc1ncsc1CCN(C)Cc1cc2n(n1)CCN(Cc1ncc[nH]1)C2 was A: 8.909%; B: 0.6452%; C: 29.29%; D: -23.8%. Cc1cnc(N2CCC3(CC2)CC3CN(C)Cc2cccnc2)nc1 (stereo not given) read B: 7.527%; C: 17.54%. For COc1cnc(N2C[C@H](CO)C[C@H](CN3CCOCC3)C2)nc1 the result was A: 9.353%; B: 0.5405%; C: 8.219%; D: -35.37%.

For CCCn1ccnc1CN1CCC(Oc2cccc(F)c2)(C(=O)O)CC1 the result was A: 2.432%; B: 0.8403%; C: 13.22%; D: 6.603%. Result for Cc1noc(C2CCC3(CCN(C(=O)c4sccc4C)CC3)O2)n1 (stereo not given) was A: 26.51%; B: 7.477%; C: 12.5%; D: -63.94%. With Cc1noc(-c2cccnc2N(C)Cc2cc(C)on2)n1 the screen gave A: -0.4802%; B: 5.882%; C: 0%; D: -18.6%. CCOC(=O)[C@]12CCCN(Cc3nccs3)C[C@H]1CN(C(C)=O)C2 gave B: 2.174%; C: 10.68%. Cc1ccc(OCC(O)COC2CCOCC2)c(Br)c1 (stereo not given) read A: -13.19%; B: -1.293%; C: 6.329%; D: 3.476%. Result for O=C(Nc1nc2c(s1)CCC2)c1cccnc1N1CCOCC1 was A: -2.162%; B: 2.174%; C: 0%; D: 40.01%. O=C1OCCN1CCCN1CCCC1c1ccc(O)cc1 (stereo not given) read A: 8.105%; B: 16.47%; C: 18.25%; D: -41.53%.

For CC(=O)N1N=C(c2cccs2)OC1C(=O)Nc1ccccc1 (stereo not given) the result was A: -12.07%; B: 4.545%; C: 9.901%; D: 22.48%. Result for Cc1cnn(CCNCC(=O)NCCOc2ccc(F)cc2)c1 was A: 5.311%; B: -6.358%; C: 16.67%; D: 13.05%. For CCS(=O)(=O)N1Cc2[nH]nc(COCc3cccnc3)c2C1 the result was B: 6.667%; C: 16.98%. With CS(=O)(=O)N1CCCC12CCCN(S(=O)(=O)c1cccc(F)c1)C2 (stereo not given) the screen gave A: 13.74%; B: 0%; C: 6.944%; D: -48.26%. For CC1c2ncc(Cn3cncn3)n2CCN1C(=O)c1ccsc1 (stereo not given) the result was A: 6.431%; B: 7.619%; C: 4.167%; D: -6.898%. With Cn1cnc(S(=O)(=O)NCCCN2CCCC2)c1Cl the screen gave A: -14.96%; B: 5.814%; C: 14.29%; D: -14.98%. CC(=O)N(C)Cc1nn(C)c2c1CN(Cc1ccsc1)C2.O=C(O)C(F)(F)F.O=C(O)C(F)(F)F read A: -0.2582%; D: -3.983%.

COc1ccc(C2SC(C)=Nc3c2c(=O)[nH]n3C2CCCCC2)cc1O (stereo not given) read A: 0.1195%; B: 27.87%; C: 38.83%; D: -0.2154%. O=C(N[C@H]1CCCC[C@@H]1O)c1ccc(-c2nc3ccccc3[nH]2)cc1 read A: -7.018%; B: 14.77%; C: 17.82%; D: 24.57%. Result for C[C@H](NC(=O)Cc1csc(-c2cccc(Cl)c2)n1)C(=O)O was A: 2.303%; B: 0.5917%; C: 9.655%. Result for CC(C)Nc1nc2c(c(NC3CC3)n1)CCN(C(=O)C1CCOC1)CC2 (stereo not given) was A: -1.634%; B: 6.557%; C: 10.53%; D: -77.44%. For Cc1cccnc1CCNC(=O)CC1C(=O)NCCN1CCC(C)C (stereo not given) the result was A: 3.153%; B: -4.663%; C: -2.151%; D: -16.77%. With CC(Cn1cccn1)NC(=O)NCCN1CCCCCC1=O (stereo not given) the screen gave A: 0.7692%; B: 2.618%; C: 13.79%; D: -15.73%. With Cn1nccc1-c1ncc2c(c1C(=O)O)CCN(Cc1ccccc1)C2 the screen gave B: 5.882%; C: 4.274%.

For [H][C@@]12C[C@H](C(=O)Nc3cccnc3)[C@@]([H])(CN(S(=O)(=O)C3CC3)C1)O2 the result was A: 7.495%; D: -519.8%. O=C(Cc1ccn[nH]1)Nc1cncc(Br)c1O read A: -3.125%; B: 7.955%; C: 15%; D: -28.46%. Cn1ccnc1C(=O)N1CCC2(CCN2c2ncccn2)C1 (stereo not given) read B: 6.667%; C: 15.09%. With COc1cc(N2C[C@@H]3COC[C@]3(COCc3cccc(C)n3)C2)ncn1 the screen gave B: -3.867%; C: 4.511%.

Some entries from above, unchanged:

* Cn1cnc(S(=O)(=O)NCCCN2CCCC2)c1Cl | A: -14.96%; B: 5.814%; C: 14.29%; D: -14.98%
* Cc1csc(NC(=O)c2cnc(C3CCNCC3)cn2)n1.Cl | A: 8.639%; D: -16.07%
* Cn1nccc1-c1ncc2c(c1C(=O)O)CCN(Cc1ccccc1)C2 | B: 5.882%; C: 4.274%

The values are deposited in ChEMBL (CHEMBL3988442, “University of Dundee, Small-Polar-MMV Screening Library” (2021)).